Measurements published in US20240294572A1, “Antimicrobial Peptides” (priority 2021, published 2024).
Some entries share one result that the patent states for a list of compounds. Residues, ends and D or L forms follow the SMILES beside them. *: point of attachment. Decanoyl = CCCCCCCCCC(=O)*; Octanoyl = CCCCCCCC(=O)*

Test system: S. aureus, E. coli, and P. aeruginosa
Assay: MIC summary over bacterial panel
Assay type: cell-based
Details: range over the three bacteria

SMILES	MIC against S. aureus, E. coli, and P. aeruginosa
CCCCCCCCCC(=O)N[C@@H](CCCCN)C(=O)N[C@@H](CCCNC(=N)N)C(=O)N[C@H](C(=O)N[C@@H](Cc1c[nH]c2ccccc12)C(=O)N[C@@H](CCC(N)=O)C(=O)N[C@@H](CCCNC(=N)N)C(=O)N[C@H](C(=O)N[C@@H](CCCCN)C(N)=O)[C@@H](C)CC)[C@@H](C)CC [Peptide C10-KR8] (Decanoyl-KRIWQRIK-NH2)	1.6 to 12.5 µM
CCCCCCCC(=O)N[C@@H](CCCCN)C(=O)N[C@@H](CCCNC(=N)N)C(=O)N[C@H](C(=O)N[C@@H](Cc1c[nH]c2ccccc12)C(=O)N[C@@H](CCC(N)=O)C(=O)N[C@@H](CCCNC(=N)N)C(=O)N[C@H](C(=O)N[C@@H](CCCCN)C(=O)N[C@@H](CC(=O)O)C(=O)N[C@@H](Cc1ccccc1)C(N)=O)[C@@H](C)CC)[C@@H](C)CC [Peptide C8-KR10] (Octanoyl-KRIWQRIKDF-NH2)	1.6 to 12.5 µM
